According to the supplement of paper PMC10849652:
Some of the results follow.

The chains behind the UniProt entries cited, without tags or fusion partners. Where a name states a change or a piece, a line headed by the entry shows the natural chain unless it says otherwise.
UniProt Q9H9Q2: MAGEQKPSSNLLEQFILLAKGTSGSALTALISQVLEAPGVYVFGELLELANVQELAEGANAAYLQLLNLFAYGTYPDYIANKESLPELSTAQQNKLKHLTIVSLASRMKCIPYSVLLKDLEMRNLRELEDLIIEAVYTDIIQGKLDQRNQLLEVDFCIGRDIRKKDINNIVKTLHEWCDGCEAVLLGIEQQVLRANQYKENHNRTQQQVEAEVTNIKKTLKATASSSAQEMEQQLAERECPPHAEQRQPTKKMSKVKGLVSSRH
UniProt Q92600, whole entry, looked up: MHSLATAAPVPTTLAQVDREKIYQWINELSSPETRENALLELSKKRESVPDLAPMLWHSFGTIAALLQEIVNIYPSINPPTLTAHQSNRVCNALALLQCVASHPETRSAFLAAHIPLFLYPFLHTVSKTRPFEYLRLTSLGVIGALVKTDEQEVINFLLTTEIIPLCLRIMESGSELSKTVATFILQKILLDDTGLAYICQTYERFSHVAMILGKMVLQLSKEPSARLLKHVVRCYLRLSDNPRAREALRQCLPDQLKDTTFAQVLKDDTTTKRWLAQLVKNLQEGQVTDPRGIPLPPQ
UniProt P29373: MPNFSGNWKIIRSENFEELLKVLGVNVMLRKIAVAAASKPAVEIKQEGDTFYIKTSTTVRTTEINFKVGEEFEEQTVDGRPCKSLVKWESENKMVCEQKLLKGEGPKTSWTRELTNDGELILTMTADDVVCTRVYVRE
UniProt Q8NE01: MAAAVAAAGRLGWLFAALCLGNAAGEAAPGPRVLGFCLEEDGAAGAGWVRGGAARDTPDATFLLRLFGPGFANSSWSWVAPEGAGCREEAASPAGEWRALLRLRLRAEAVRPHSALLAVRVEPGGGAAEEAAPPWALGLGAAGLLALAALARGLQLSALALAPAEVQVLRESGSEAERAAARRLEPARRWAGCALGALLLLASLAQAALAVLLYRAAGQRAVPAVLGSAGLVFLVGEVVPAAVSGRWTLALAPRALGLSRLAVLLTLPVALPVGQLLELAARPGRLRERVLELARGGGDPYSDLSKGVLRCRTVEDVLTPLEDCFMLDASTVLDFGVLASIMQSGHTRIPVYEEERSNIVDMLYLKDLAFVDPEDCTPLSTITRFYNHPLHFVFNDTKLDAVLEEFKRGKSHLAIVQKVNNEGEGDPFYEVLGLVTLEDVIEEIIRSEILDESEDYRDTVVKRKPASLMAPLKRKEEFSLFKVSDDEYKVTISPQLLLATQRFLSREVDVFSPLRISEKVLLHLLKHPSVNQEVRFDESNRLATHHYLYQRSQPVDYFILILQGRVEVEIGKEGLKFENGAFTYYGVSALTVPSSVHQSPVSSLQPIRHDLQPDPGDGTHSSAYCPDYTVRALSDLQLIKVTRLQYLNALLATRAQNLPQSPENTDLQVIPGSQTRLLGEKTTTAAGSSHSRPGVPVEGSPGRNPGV
UniProt Q5JTJ3: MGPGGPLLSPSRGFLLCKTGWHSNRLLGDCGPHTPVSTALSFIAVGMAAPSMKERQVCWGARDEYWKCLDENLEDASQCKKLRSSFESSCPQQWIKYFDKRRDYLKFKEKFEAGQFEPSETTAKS
UniProt Q9NZN8, whole entry, looked up: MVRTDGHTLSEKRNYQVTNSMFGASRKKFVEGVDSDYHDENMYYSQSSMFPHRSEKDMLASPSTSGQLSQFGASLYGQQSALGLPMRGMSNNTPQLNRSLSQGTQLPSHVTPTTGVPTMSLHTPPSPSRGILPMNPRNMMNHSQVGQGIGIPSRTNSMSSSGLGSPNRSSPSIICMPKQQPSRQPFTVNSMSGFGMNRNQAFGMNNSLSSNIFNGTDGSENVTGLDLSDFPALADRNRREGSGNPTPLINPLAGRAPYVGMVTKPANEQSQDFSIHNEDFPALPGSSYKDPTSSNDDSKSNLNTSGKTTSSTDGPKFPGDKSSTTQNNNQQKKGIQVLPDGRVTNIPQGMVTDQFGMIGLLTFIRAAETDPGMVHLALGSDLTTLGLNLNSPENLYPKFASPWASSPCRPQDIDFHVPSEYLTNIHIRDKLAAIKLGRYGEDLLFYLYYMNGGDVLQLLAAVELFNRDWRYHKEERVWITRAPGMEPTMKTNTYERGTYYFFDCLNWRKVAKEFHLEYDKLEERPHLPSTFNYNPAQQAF
UniProt P83436: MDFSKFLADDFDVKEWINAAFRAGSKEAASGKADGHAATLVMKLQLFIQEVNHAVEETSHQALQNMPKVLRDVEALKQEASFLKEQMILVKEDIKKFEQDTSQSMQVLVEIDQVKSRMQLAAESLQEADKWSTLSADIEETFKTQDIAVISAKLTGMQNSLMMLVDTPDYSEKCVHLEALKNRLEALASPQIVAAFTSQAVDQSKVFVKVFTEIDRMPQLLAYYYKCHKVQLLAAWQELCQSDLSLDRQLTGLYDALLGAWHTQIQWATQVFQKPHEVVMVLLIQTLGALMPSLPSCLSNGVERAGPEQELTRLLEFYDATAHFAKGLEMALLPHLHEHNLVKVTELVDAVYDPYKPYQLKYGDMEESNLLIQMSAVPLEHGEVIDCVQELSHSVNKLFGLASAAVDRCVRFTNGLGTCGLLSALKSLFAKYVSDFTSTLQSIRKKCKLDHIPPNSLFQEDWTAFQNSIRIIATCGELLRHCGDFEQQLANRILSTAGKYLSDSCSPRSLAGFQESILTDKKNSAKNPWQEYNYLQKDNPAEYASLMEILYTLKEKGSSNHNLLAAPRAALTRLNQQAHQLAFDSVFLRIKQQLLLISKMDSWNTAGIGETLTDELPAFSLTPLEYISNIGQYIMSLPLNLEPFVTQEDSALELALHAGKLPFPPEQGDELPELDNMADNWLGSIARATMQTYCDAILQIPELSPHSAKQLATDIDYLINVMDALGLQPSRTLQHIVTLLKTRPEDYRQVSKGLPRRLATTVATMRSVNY
UniProt P38432, whole entry, looked up: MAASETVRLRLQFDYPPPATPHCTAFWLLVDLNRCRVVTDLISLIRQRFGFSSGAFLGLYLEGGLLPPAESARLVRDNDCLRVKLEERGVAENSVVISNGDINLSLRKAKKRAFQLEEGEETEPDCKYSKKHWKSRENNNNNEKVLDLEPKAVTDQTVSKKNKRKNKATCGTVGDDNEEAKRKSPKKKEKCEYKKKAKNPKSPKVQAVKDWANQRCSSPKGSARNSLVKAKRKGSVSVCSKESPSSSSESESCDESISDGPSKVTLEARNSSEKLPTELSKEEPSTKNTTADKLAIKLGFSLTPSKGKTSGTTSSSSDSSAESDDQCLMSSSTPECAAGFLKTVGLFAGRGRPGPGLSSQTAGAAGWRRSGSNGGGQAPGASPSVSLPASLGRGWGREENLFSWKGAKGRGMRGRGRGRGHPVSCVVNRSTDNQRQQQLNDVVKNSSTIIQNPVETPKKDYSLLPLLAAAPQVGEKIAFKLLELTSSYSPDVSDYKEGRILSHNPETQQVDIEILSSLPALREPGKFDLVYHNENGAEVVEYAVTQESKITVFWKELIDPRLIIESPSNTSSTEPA
UniProt P20674, whole entry, looked up: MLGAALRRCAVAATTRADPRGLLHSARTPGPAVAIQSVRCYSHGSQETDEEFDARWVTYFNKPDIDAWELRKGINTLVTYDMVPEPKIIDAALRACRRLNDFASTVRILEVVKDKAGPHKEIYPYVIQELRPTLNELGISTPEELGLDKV
UniProt Q99627: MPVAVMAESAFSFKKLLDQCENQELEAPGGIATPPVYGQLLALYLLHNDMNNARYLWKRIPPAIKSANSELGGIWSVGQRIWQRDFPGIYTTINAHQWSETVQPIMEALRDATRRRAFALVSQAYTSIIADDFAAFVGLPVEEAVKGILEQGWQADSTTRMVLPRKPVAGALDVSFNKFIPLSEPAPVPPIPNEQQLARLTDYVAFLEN
UniProt Q99829: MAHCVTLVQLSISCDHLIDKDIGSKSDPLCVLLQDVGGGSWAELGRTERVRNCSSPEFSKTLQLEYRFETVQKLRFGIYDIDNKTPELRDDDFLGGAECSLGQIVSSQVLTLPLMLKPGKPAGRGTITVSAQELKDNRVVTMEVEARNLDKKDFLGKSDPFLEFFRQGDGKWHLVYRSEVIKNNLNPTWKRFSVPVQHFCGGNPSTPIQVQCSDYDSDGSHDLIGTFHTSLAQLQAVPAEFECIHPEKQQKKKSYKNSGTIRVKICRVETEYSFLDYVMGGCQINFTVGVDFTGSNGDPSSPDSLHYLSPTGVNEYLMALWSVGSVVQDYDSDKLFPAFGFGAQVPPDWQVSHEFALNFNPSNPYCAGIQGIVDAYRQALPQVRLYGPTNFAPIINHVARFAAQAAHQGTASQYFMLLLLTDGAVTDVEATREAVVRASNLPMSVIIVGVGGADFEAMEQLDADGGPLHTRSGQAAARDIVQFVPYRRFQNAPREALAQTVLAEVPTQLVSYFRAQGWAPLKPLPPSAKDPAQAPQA
UniProt Q9BR76, whole entry, looked up: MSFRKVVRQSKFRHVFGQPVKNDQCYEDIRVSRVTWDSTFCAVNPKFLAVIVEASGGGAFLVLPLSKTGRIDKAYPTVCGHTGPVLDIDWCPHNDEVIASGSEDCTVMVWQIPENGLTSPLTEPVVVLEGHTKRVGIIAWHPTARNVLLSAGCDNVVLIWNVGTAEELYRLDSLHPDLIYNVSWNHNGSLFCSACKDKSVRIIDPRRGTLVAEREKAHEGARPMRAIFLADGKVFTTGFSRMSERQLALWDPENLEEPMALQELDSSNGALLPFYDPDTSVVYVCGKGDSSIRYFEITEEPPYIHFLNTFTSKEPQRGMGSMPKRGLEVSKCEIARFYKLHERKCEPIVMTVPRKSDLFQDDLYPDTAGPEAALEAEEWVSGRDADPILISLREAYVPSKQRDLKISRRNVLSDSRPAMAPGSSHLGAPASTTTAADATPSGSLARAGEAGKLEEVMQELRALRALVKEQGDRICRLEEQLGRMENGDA
UniProt Q9UBI1, whole entry, looked up: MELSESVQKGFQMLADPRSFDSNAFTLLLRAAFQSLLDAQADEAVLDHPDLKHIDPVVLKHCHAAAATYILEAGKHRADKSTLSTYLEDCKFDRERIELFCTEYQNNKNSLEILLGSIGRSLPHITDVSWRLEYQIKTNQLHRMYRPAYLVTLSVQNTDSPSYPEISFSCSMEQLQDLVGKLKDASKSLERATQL
UniProt Q5HYK3: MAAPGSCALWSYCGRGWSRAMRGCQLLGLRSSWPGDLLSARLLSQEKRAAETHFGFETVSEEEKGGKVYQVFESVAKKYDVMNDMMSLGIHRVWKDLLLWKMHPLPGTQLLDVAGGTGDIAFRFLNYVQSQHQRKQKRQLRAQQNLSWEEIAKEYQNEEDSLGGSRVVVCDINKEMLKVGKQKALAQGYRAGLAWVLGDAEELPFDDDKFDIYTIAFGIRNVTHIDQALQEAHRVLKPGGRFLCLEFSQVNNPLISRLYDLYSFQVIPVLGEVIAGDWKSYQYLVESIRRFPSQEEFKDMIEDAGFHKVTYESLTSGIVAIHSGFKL

What was measured:
Experiment in all cases: log2 fold change, soluble protein after heating vs DMSO (PISA); higher = thermal stabilisation; K562 lysate, 10 uM; active = over 0.2 and 3.5 SD of the protein, either way, in both replicates (recomputed)
[1] = compound: CN1CC[C@H](c2c(O)cc(O)c3c(=O)cc(-c4ccccc4Cl)oc23)[C@H](O)C1 [alvocidib]
Method in brief: (§1)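 Thermal stability, expressed as log-two fold change relative to solvent controls, is given from duplicates. Crude K562 extract in PBS pH 7.4 with 1 mM MgCl2, at 1 mg/mL protein, was treated with 10 μM compound for 30 min and heated in aliquots for 3 min across 48°C-58°C. After pooling, adjustment to 0.5% NP-40 at 4°C and centrifugation at 21,000xg for 90 min, supernatant protein was measured by TMTpro 16plex LC-MS/MS with channel sums equalised.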

[2] = compound: CN1CCc2c(c3ccccc3n2Cc2ccc(C(=O)NO)cc2)C1 [Tubastatin A]
Method in brief: as §1

[3] = compound: CNC(=O)C1=CC=CC=C1NC2=NC(=NC=C2Cl)NC3=C(C=C(C=C3)N4CCOCC4)OC
Method in brief: as §1

[4] = compound: CNC(=O)c1ccc(Nc2ncc(C(F)(F)F)c(NCc3nccnc3N(C)S(C)(=O)=O)n2)cc1 [defactinib]
Method in brief: as §1

[5] = compound: CNc1nc(-c2ccc3c(N)n[nH]c3c2)cc(N2C[C@@H](C(=O)NC3CCCCC3)CC[C@H]2C)n1
Method in brief: as §1

[6] = compound: COC(=O)N[C@@H](C)CNc1nccc(-c2cn(C(C)C)nc2-c2cc(Cl)cc(NS(C)(=O)=O)c2F)n1 [encorafenib]
Method in brief: as §1

[7] = compound: COC(=O)[C@H](CCSC)NC(=O)C1=C(C=C(C=C1)NC[C@H](CS)N)C2=CC=CC=C2
Method in brief: as §1

[8] = compound: COc1cc(Nc2ncc3c(n2)-c2ccc(Cl)cc2C(c2c(F)cccc2OC)=NC3)ccc1C(=O)O [alisertib]
Method in brief: as §1

[9] = compound: COc1cc2nc(-c3cc(F)ccc3O)nc(N[C@@H]3CNC[C@H]3C(C)(C)O)c2cc1OC
Method in brief: as §1

[10] = compound: COc1cc2ncnc(Nc3ccc(F)c(Cl)c3)c2cc1OCCCN1CCOCC1 [gefitinib]
Method in brief: as §1

[11] = compound: CS(=O)(=O)CCNCc1ccc(-c2ccc3ncnc(Nc4ccc(OCc5cccc(F)c5)c(Cl)c4)c3c2)o1 [lapatinib]
Method in brief: as §1

[12] = compound: CS(=O)(=O)N1CCN(Cc2cc3nc(-c4cccc5[nH]ncc45)nc(N4CCOCC4)c3s2)CC1 [pictilisib]
Method in brief: as §1

[13] = compound: C[C@@H](Oc1cc(-c2cnn(C3CCNCC3)c2)cnc1N)c1c(Cl)ccc(F)c1Cl [crizotinib]
Method in brief: as §1

[14] = compound: C[C@H](C1=CC=C(C=C1)C(=O)NC2=C3C=CNC3=NC=C2)N
Method in brief: as §1

[15] = compound: C[C@H](Nc1ncnc2nc[nH]c12)c1cc2cccc(Cl)c2c(=O)n1-c1ccccc1 [duvelisib]
Method in brief: as §1

[16] = compound: Cc1cc(Nc2cc(CN3CCOCC3)c3nc(C)c(Cc4ccc(Cl)cc4F)n3n2)n[nH]1 [gandotinib]
Method in brief: as §1

[17] = compound: Cc1cc(Nc2cc(N3CCN(C)CC3)nc(Sc3ccc(NC(=O)C4CC4)cc3)n2)n[nH]1 [tozasertib]
Method in brief: as §1

[18] = compound: Cc1ccc(-n2nc(C(C)(C)C)cc2NC(=O)Nc2ccc(OCCN3CCOCC3)c3ccccc23)cc1 [doramapimod]
Method in brief: as §1

[19] = compound: Cc1ccc(NC(=O)c2ccc(CN3CC[C@H](N(C)C)C3)c(C(F)(F)F)c2)cc1Nc1nccc(-c2cncnc2)n1 [bafetinib]
Method in brief: as §1

[20] = compound: Cc1cccc(CC(=O)N2CCc3c2ccc(-c2cn(C)c4ncnc(N)c24)c3F)n1
Method in brief: as §1

Measured: log2 fold change

COPS7B (UniProt Q9H9Q2)
inactive: [1] -0.08 | [2] 0.004 | [3] -0.011 | [4] -0.083 | [5] 0.02 | [6] -0.069 | [7] 0.098 | [8] -0.06 | [9] 0.014 | [10] 0.041 | [11] -0.013 | [12] -0.036 | [13] 0 | [14] 0.181 | [15] 0.042 | [16] -0.139 | [17] 0.173 | [18] 0.076 | [19] -0.019 | [20] 0.031

CNOT9 (UniProt Q92600)
inactive: [1] -0.02 | [2] -0.078 | [3] 0.007 | [4] 0.007 | [5] -0.037 | [6] -0.002 | [7] 0 | [8] 0.031 | [9] 0.016 | [10] -0.02 | [11] -0.005 | [12] -0.057 | [13] -0.038 | [14] -0.028 | [15] 0 | [16] -0.042 | [17] 0.037 | [18] -0.003 | [19] 0.019 | [20] 0.048

CRABP2 (UniProt P29373)
inactive: [1] -0.025 | [2] -0.116 | [3] -0.04 | [4] -0.015 | [5] 0.006 | [6] -0.209 | [7] 0.082 | [8] -0.109 | [9] -0.018 | [10] 0.01 | [11] -0.008 | [12] -0.026 | [13] -0.025 | [14] 0.041 | [15] -0.056 | [16] 0.091 | [17] 0.241 | [18] 0.078 | [19] 0.014 | [20] -0.138

CNNM3 (UniProt Q8NE01)
inactive: [1] 0.004 | [2] 0.068 | [3] 0.016 | [4] -0.037 | [5] 0.043 | [6] -0.013 | [7] 0.007 | [8] -0.021 | [9] -0.019 | [10] 0.016 | [11] 0.003 | [12] -0.036 | [13] -0.056 | [14] -0.039 | [15] -0.013 | [16] -0.046 | [17] -0.028 | [18] 0.043 | [19] -0.025 | [20] 0.085

COA6 isoform 2 (UniProt Q5JTJ3)
inactive: [1] 0.012 | [2] 0.086 | [3] 0.014 | [4] 0.041 | [5] 0.031 | [6] -0.113 | [7] 0.026 | [8] -0.274 | [9] 0.01 | [10] 0.271 | [11] -0.032 | [12] -0.062 | [13] 0.091 | [14] -0.062 | [15] 0.044 | [16] -0.009 | [17] 0.075 | [18] -0.052 | [19] 0.52 | [20] -0.106

CNOT2 (UniProt Q9NZN8)
inactive: [1] -0.003 | [2] -0.046 | [3] -0.002 | [4] 0.001 | [5] -0.027 | [6] -0.002 | [7] 0.013 | [8] -0.025 | [9] 0.008 | [10] 0.011 | [11] -0.027 | [12] -0.014 | [13] -0.023 | [14] 0.111 | [15] -0.008 | [16] -0.093 | [17] 0.001 | [18] -0.01 | [19] 0.024 | [20] -0.005

COG7 (UniProt P83436)
inactive: [1] 0.019 | [2] -0.114 | [3] -0.02 | [4] 0.056 | [5] -0.047 | [6] 0.028 | [7] 0.035 | [8] 0.014 | [9] 0.012 | [10] 0.004 | [11] -0.014 | [12] -0.008 | [13] -0.025 | [14] -0.068 | [15] -0.01 | [16] -0.059 | [17] -0.028 | [18] 0.028 | [19] -0.044 | [20] 0.058

COIL (UniProt P38432)
inactive: [1] 0.058 | [2] -0.021 | [3] 0.056 | [4] -0.016 | [5] -0.013 | [6] 0.064 | [7] 0.003 | [8] 0.043 | [9] -0.041 | [10] -0.011 | [11] 0.006 | [12] -0.006 | [13] -0.022 | [14] 0.076 | [15] -0.05 | [16] -0.037 | [17] 0.012 | [18] 0.029 | [19] -0.018 | [20] -0.079

CNOT6L (UniProt Q96LI5)
inactive: [1] -0.091 | [2] 0.022 | [3] 0.022 | [4] 0.046 | [5] 0.013 | [6] 0.036 | [7] 0.066 | [8] -0.005 | [9] 0.037 | [10] -0.033 | [11] -0.03 | [12] -0.042 | [13] -0.076 | [14] -0.251 | [15] -0.001 | [16] 0.065 | [17] 0.064 | [18] 0.012 | [19] -0.1 | [20] 0.114

CNOT11 (UniProt Q9UKZ1)
inactive: [1] 0.002 | [2] -0.025 | [3] 0.012 | [4] 0.001 | [5] 0.071 | [6] 0.041 | [7] 0.009 | [8] -0.012 | [9] 0.014 | [10] 0.014 | [11] 0.011 | [12] 0.042 | [13] -0.063 | [14] -0.039 | [15] 0.016 | [16] -0.045 | [17] -0.012 | [18] -0.013 | [19] -0.019 | [20] 0.086

COX5A (UniProt P20674)
inactive: [1] 0.226 | [2] 0.079 | [3] 0.117 | [4] 0.14 | [5] 0.011 | [6] -0.005 | [7] -0.071 | [8] 0.028 | [9] -0.036 | [10] -0.208 | [11] 0.036 | [12] -0.059 | [13] 0.03 | [14] 0.307 | [15] 0.036 | [16] -0.188 | [17] -0.032 | [18] -0.002 | [19] 0.055 | [20] -0.196

Quoted at random: two records from the list.
COG7 (UniProt P83436)
inactive: [1] 0.019 | [2] -0.114 | [3] -0.02 | [4] 0.056 | [5] -0.047 | [6] 0.028 | [7] 0.035 | [8] 0.014 | [9] 0.012 | [10] 0.004 | [11] -0.014 | [12] -0.008 | [13] -0.025 | [14] -0.068 | [15] -0.01 | [16] -0.059 | [17] -0.028 | [18] 0.028 | [19] -0.044 | [20] 0.058

CNOT11 (UniProt Q9UKZ1)
inactive: [1] 0.002 | [2] -0.025 | [3] 0.012 | [4] 0.001 | [5] 0.071 | [6] 0.041 | [7] 0.009 | [8] -0.012 | [9] 0.014 | [10] 0.014 | [11] 0.011 | [12] 0.042 | [13] -0.063 | [14] -0.039 | [15] 0.016 | [16] -0.045 | [17] -0.012 | [18] -0.013 | [19] -0.019 | [20] 0.086

(further entries)

COPS8 (UniProt Q99627)
inactive: [1] -0.006 | [2] 0.069 | [3] -0.005 | [4] 0.03 | [5] 0.084 | [6] 0.019 | [7] 0.053 | [8] 0.045 | [9] 0.002 | [10] -0.077 | [11] 0.022 | [12] -0.002 | [13] 0 | [14] -0.002 | [15] 0.018 | [16] 0.004 | [17] 0.027 | [18] 0.014 | [19] -0.01 | [20] 0.009

CPNE1 (UniProt Q99829)
inactive: [1] -0.024 | [2] -0.004 | [3] 0.054 | [4] -0.011 | [5] 0.026 | [6] 0.018 | [7] -0.019 | [8] 0 | [9] -0.016 | [10] -0.009 | [11] 0.03 | [12] -0.052 | [13] -0.025 | [14] -0.065 | [15] 0.015 | [16] 0.018 | [17] 0.043 | [18] 0.044 | [19] 0.006 | [20] 0.04

CORO1B (UniProt Q9BR76)
inactive: [1] 0.012 | [2] 0.03 | [3] 0.005 | [4] 0.01 | [5] 0.021 | [6] -0.016 | [7] 0.056 | [8] 0.019 | [9] 0.011 | [10] -0.007 | [11] -0.012 | [12] -0.013 | [13] -0.005 | [14] -0.041 | [15] 0.012 | [16] -0.002 | [17] 0 | [18] 0.024 | [19] -0.021 | [20] 0.02

COMMD3 (UniProt Q9UBI1)
inactive: [1] 0.08 | [2] 0.013 | [3] 0.051 | [4] 0.121 | [5] 0.046 | [6] 0.064 | [7] -0.073 | [8] 0.046 | [9] -0.003 | [10] -0.098 | [11] 0.046 | [12] 0.04 | [13] -0.006 | [14] 0.032 | [15] -0.055 | [16] -0.09 | [17] 0.017 | [18] 0.011 | [19] -0.055 | [20] -0.002

COQ5 (UniProt Q5HYK3)
inactive: [1] -0.027 | [2] 0.025 | [3] 0.02 | [4] -0.059 | [5] 0.081 | [6] 0.062 | [7] -0.017 | [8] -0.027 | [9] 0.007 | [10] 0.039 | [11] 0.084 | [12] -0.011 | [13] -0.031 | [14] 0.036 | [15] -0.004 | [16] -0.005 | [17] -0.027 | [18] 0.008 | [19] -0.033 | [20] -0.01
